Experimental data published in PubChem BioAssay AID504467 (National Center for Advancing Translational Sciences (NCATS), 2011).
About 7,700 (2.3%) of roughly 330,000 compounds were called active. Inconclusive means that the source gave no clear call. Such entries were picked first, then a sample of the others. The call rests on the fitted dose curve; in most records, active means well fitted inhibition curve with a large enough effect; inconclusive means small, poorly fitted or top-dose-only effect, or effect the other way; inactive means flat fitted curve, though single readings scatter. Potencies beside an inconclusive call are fits to weak or partial responses and may not hold up.

Assay: qHTS screen for small molecules that inhibit ELG1-dependent DNA repair in human embryonic kidney (HEK293T) cells expressing luciferase-tagged ELG1; further: nearly all actives have a fitted effect of over 55% in size
Conditions: HEK293T ELG1-luciferase reporter, luminescence, 16 h, DNA damage induced by 5-fluorouridine; series mostly up to 46.1 µM
How it was run: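 Reporter activity after DNA damage by 5-fluorouridine is monitored. Compound-treated cells incubate 16 hr at 37 °C, then ONE-Glo is added for 30 min before luminescence reading.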
Potency means the concentration at half of the fitted maximal effect.

Compound	Potency
CSCCC(NC(=O)COc1ccccc1)C(=O)OCc1ccc([N+](=O)[O-])cc1 (stereo unspecified)	inactive
CCCCCCN1CC(O)=C(c2ccccc2)C1=N	inactive
CC(=O)c1cccc(NC(=O)c2cc(-c3cccs3)on2)c1	inconclusive: 18.3 µM [activator, single point]
O=C(CN1C(=O)NC2(CCCC2)C1=O)OCc1ccccc1F	inactive
COC(=O)C1CCN(S(=O)(=O)CCNC(=O)c2ccc(F)cc2)CC1	inactive
CCOc1ccccc1OCC(=O)Nc1nnc(COC)s1	inactive
CC(NC(=O)c1noc2c1CCCCC2)c1ccccc1 (stereo unspecified)	inconclusive: 20.6 µM [activator, single point]
Cc1nc2ccccc2c(=O)n1/N=C/c1cccs1	inconclusive: 16.4 µM [activator, partial curve]
NS(=O)(=O)c1ccc(CCNC(=O)C(=O)NCC2OCCN2S(=O)(=O)c2ccc(Cl)cc2)cc1 (stereo unspecified)	inconclusive: 23.1 µM [inhibitor, single point]
O=S(=O)(c1ccc2c(c1)OCCO2)N1CCC(c2nc3ccccc3[nH]2)CC1	inconclusive: 25.9 µM [inhibitor, partial curve, poor fit]
O=C(Nc1cc(S(=O)(=O)N2CCCCC2)ccc1Cl)C1=NN(c2ccccc2)C(=O)CC1	inconclusive: 18.3 µM [inhibitor, partial curve, poor fit]
C=CCOn1c(C)c(C(C)=O)c2c3no[n+]([O-])c3ccc21	inconclusive: 11.6 µM [inhibitor, partial curve]
Cc1ccc(S(=O)(=O)c2c(COC(=O)c3ccccc3Cl)c(-c3ccccc3)nn2C)cc1	inconclusive: 11.6 µM [inhibitor, partial curve]
CCOc1cc(C(=O)OCC(=O)Nc2cc(C)on2)ccc1OCC(C)C	inconclusive: 29.1 µM [activator, partial curve, poor fit]
N#C/C(=C\c1ccccc1)C(=O)NC1CC1	inactive
Cc1ccc(C)n1-c1ccc(C(=O)NCc2cccnc2)cc1	inconclusive: 14.6 µM [activator, partial curve]
CC1CCN(C(NC(=O)c2ccco2)C(=O)c2ccccc2)CC1 (stereo unspecified)	inconclusive: 18.4 µM [activator, single point]
COc1ccc(CCN2C(=O)N(c3ccc(OC)cc3)C(=O)C2CC(=O)Nc2ccccc2)cc1 (stereo unspecified)	inconclusive: 20.6 µM [inhibitor, single point]
N#Cc1cccc(NC(=O)c2ccc(S(=O)(=O)N3CCOCC3)cc2)c1	inactive
COc1ccc(NC(=O)c2cn(-c3ccccc3)nc2-c2ccncc2)cc1	inconclusive: 29.1 µM [inhibitor, single point]
N=c1n(CCN2CCCC2)c2ccccc2n1CC(O)c1ccco1 (stereo unspecified)	inactive
CCCCc1c(C)c(C#N)c2nc3ccccc3n2c1Nc1c(C)n(C)n(-c2ccccc2)c1=O	inconclusive: 35.5 µM [inhibitor, partial curve, poor fit]
Cc1cc(Cl)ccc1OCCCC(=O)N1CCOCC1	inconclusive: 10 µM [activator, partial curve, poor fit]
CCOc1ncccc1C(=O)Nc1nc(C(C)(C)C)cs1	inconclusive: 13 µM [activator, single point]

Compound	Potency
Cc1[nH]c2ccc(C(=O)NCCN3CCOCC3)cc2c1C	inconclusive: 18.3 µM [activator, single point]
Cc1ccnc(N2CCN(C(=O)CSc3nc4ccccc4nc3N3CCC(C)CC3)CC2)c1	active: 20.6 µM
CCc1cc2c(=O)[nH]c(N3CCCC3)nc2s1	inconclusive: 23.1 µM [activator, single point]
COc1ccccc1NC(=O)Nc1ccc2c(c1)CCC2	inconclusive: 16.4 µM [activator, partial curve]
CCN(CC(=O)Nc1c(F)cccc1F)C(=O)COc1cccc2c1OC(C)(C)C2	inactive
Nc1nonc1-n1nnc(C(=O)N/N=C/c2cc(Br)ccc2O)c1CNc1ccccc1	inconclusive: 32.6 µM [inhibitor, single point]
CNC(=O)CC1C(=O)N(c2ccc(Cl)cc2)C(=S)N1CCc1ccc(OC)c(OC)c1 (stereo unspecified)	inconclusive: 32.6 µM [inhibitor, single point]
Cc1cc2nccc(-c3ccncc3)n2n1	active: 13 µM
CC1C/C(=N\NC(=S)NC(C)C)CC(C)(C)C1 (stereo unspecified)	inconclusive: 25.9 µM [inhibitor, single point]
CCNC(=S)N(Cc1ccco1)Cc1cc2cc(OCC)ccc2[nH]c1=O	inconclusive: 20.6 µM [inhibitor, partial curve, poor fit]
O=C(OCC(=O)c1ccc(Cl)s1)c1ccccn1	inconclusive: 20.6 µM [activator, single point]
O=C(NCC1CCCO1)c1ccc2c(=O)n(Cc3cccc(Br)c3)c(=S)[nH]c2c1 (stereo unspecified)	inactive
Cc1cc(C)c(S(=O)(=O)n2ccc(-c3ccc(OCCN(C)c4ccccn4)cc3)n2)c(C)c1	inconclusive: 6.31 µM [inhibitor, single point]
CCOC(=O)c1nc(Nc2cc(C)cc(C)c2)c2ccccc2n1	inconclusive: 18.3 µM [inhibitor, partial curve]
CC(=O)c1ccc(NC(=O)C2(S(=O)(=O)c3ccccc3)CC2)cc1	inconclusive: 20.6 µM [activator, partial curve, poor fit]
Cc1ccc2nc(C)cc(N/N=C/c3cccnc3)c2c1	inactive
CN(C)/C=C1/OC(=O)C(C#N)=C1c1ccc(Cl)cc1	inactive
CCCC(=O)Nc1ccc(S(=O)(=O)Nc2cc(C)nc(C)n2)cc1	inactive
Cn1c(=O)cc(OCCCC(=O)Nc2cccnc2)c2ccccc21	inconclusive: 20.6 µM [activator, single point]
CCC(Cc1c(I)cc(I)c(N)c1I)C(=O)O (stereo unspecified)	inconclusive: 10 µM [activator, partial curve]
CCN(CC(=O)NCc1cccs1)C(=O)c1ccc(-c2cccc(C(F)(F)F)c2)o1	inconclusive: 8.2 µM [inhibitor, single point]
CCc1c(C)sc(NC(=O)c2cccs2)c1C(N)=O	inconclusive: 11.6 µM [activator, partial curve]
CCc1ccc(/C=N/NC(=S)NCCc2ccccc2)cc1	inactive
Cc1ccc(-n2c(Cc3ccccc3)nnc2SCC(=O)NNC(=O)Cc2ccccc2)cc1	inactive

Given comma-delimited: part of the list above
Compound,Potency
CCOc1ccccc1OCC(=O)Nc1nnc(COC)s1,inactive
CCOc1cc(C(=O)OCC(=O)Nc2cc(C)on2)ccc1OCC(C)C,"inconclusive: 29.1 µM [activator, partial curve, poor fit]"
CCc1cc2c(=O)[nH]c(N3CCCC3)nc2s1,"inconclusive: 23.1 µM [activator, single point]"
Cc1ccc2nc(C)cc(N/N=C/c3cccnc3)c2c1,inactive
CCN(CC(=O)NCc1cccs1)C(=O)c1ccc(-c2cccc(C(F)(F)F)c2)o1,"inconclusive: 8.2 µM [inhibitor, single point]"

Going on with the list:

Compound	Potency
O=C(COC(=O)c1cc(-c2cccc(Br)c2)nc2ccccc12)NCC1CCCO1 (stereo unspecified)	inactive
O=C(CN1CCc2ccccc2C1)N1CCN(S(=O)(=O)c2ccccc2)CC1	inactive
COc1cc(/C=N/NC(=Nc2ccc(C)cc2)c2nc3ccccc3s2)ccc1O	inconclusive: 2.59 µM [activator, partial curve]
O=C(c1cccc(NS(=O)(=O)c2ccccc2)c1)N1CCCCC1	inconclusive: 1.83 µM [activator, partial curve]
O=C(NC1CCCCC1)c1ccc(-c2ccccc2[N+](=O)[O-])o1	inconclusive: 2.91 µM [activator, full curve]
O=C(Nc1nc2c(F)cc(F)cc2s1)C1CCN(C(=O)c2ccc(F)cc2)CC1	inconclusive: 8.2 µM [activator, single point]
CCOc1cccc2sc(=NC(=O)CCS(=O)(=O)c3ccc(F)cc3)n(C)c12	inconclusive: 22.4 µM [inhibitor, single point]
Cc1nn(Cc2ccc(Cl)cc2)c(C)c1NC(=O)c1cc(-c2ccco2)on1	inconclusive: 16.4 µM [inhibitor, single point]
CSc1nc(N)nc(SCC(=O)C23CC4CC(CC(C4)C2)C3)c1C#N	active: 20.6 µM
Nc1nc(CCOc2ccc(F)cc2)cs1	inconclusive: 23.1 µM [activator, single point]
COc1ccc(Sc2ccc(/C=C3\C(=O)NN(c4ccccc4)C3=O)o2)cc1	inactive
O=C(Nc1ccc2nc3n(c(=O)c2c1)CCCC3)c1cccc(F)c1	inconclusive: 8.2 µM [activator, partial curve]
COc1ccc(C(CNc2ncnc3sccc23)N(C)C)cc1OC (stereo unspecified)	inactive
CCCCN(C)C(=O)Cn1c(=O)oc2cc(S(=O)(=O)N3CC(C)CC(C)C3)ccc21 (stereo unspecified)	inconclusive: 29.1 µM [inhibitor, single point]
CCOC(=O)C1CCN(CC(O)COc2ccc(C(=O)CC)cc2)CC1 (stereo unspecified)	inconclusive: 18.4 µM [activator, single point]
CC(C)CN(C(=O)c1ccc(F)cc1F)c1c(N)n(CC(C)C)c(=O)[nH]c1=O	inactive
Cc1ccc(Nc2nc(NCC3CCCO3)nc(N)c2[N+](=O)[O-])cc1 (stereo unspecified)	inconclusive: 29.1 µM [inhibitor, single point]
Cc1ccc(CSc2ccc(C(=O)N3CCOCC3)cc2[N+](=O)[O-])cc1	inactive
COC(=O)c1c(NC(C)=O)sc(C(=O)Nc2ccccc2F)c1C	inconclusive: 5.17 µM [activator, full curve]
Cc1ccc(NC(=O)c2cc3ccccc3o2)cc1	inconclusive: 0.562 µM [activator, partial curve, poor fit]
Cc1[nH]c(C)c(S(=O)(=O)Nc2ccc(OC(F)(F)F)cc2)c1C(=O)N1CCCCC1	inactive
COc1ccc2oc(C(=O)NCC(c3ccco3)N(C)C)c(C)c2c1 (stereo unspecified)	inconclusive: 23.1 µM [activator, single point]
O=C(CCl)Nc1cc(SCC(O)CO)cc([N+](=O)[O-])c1 (stereo unspecified)	active: 3.26 µM
